# Some of the results follow. Only a few entries rise above the background.
# B1: 4-127.1 (protein)
# chain 1: QVQLQESGPGLVKPSETLSLTCAVSDYSINTGHGWTWIRQPPGKGLEWIGYIGGSSGSPNYNPSLKSRVTISKDTSKNELSLKLNSVTAADTAVYYCARRIPADRSGNDFWGQGVLVTVSS
# chain 2: QSVLTQPPSVSGDPGQRVTISCTGSSSNIGGFYGYWYQQFPGTAPKLLIYDNNKRPSGISDRFSGSKSGTSASLTITGLQPGDEADYYCGSWDSSLSAHVFGSGTKLTVL
# Key:
# Experiment in all cases: fluorescence intensity of antibody binding to polysaccharide-coupled beads; higher = stronger binding
# [1] = biological target: pneumococcal polysaccharide Pn28A
# [2] = biological target: pneumococcal polysaccharide Pn28F
# [3] = biological target: pneumococcal polysaccharide Pn29
# [4] = biological target: pneumococcal polysaccharide Pn3
# [5] = biological target: pneumococcal polysaccharide Pn31
# [6] = biological target: pneumococcal polysaccharide Pn32A
# [7] = biological target: pneumococcal polysaccharide Pn32F
# [8] = biological target: pneumococcal polysaccharide Pn33A
# [9] = biological target: pneumococcal polysaccharide Pn33B
# [10] = biological target: pneumococcal polysaccharide Pn33C
# [11] = biological target: pneumococcal polysaccharide Pn33D
# [12] = biological target: pneumococcal polysaccharide Pn33F
# [13] = biological target: pneumococcal polysaccharide Pn34
# [14] = biological target: pneumococcal polysaccharide Pn35A
# [15] = biological target: pneumococcal polysaccharide Pn35B
# [16] = biological target: pneumococcal polysaccharide Pn35C
# [17] = biological target: pneumococcal polysaccharide Pn35F
# [18] = biological target: pneumococcal polysaccharide Pn36
# [19] = biological target: pneumococcal polysaccharide Pn37
# [20] = biological target: pneumococcal polysaccharide Pn38
# [21] = biological target: pneumococcal polysaccharide Pn39
# [22] = biological target: pneumococcal polysaccharide Pn4
# [23] = biological target: pneumococcal polysaccharide Pn40
# [24] = biological target: pneumococcal polysaccharide Pn41A
# [25] = antibody concentration 2337.65 ng/mL
# [26] = antibody concentration 12500 ng/mL
# [27] = antibody concentration 0.1 ng/mL
# [28] = antibody concentration 0.534724 ng/mL
# [29] = antibody concentration 2.8593 ng/mL
# [30] = antibody concentration 15.2894 ng/mL
# [31] = antibody concentration 81.7561 ng/mL
# [32] = antibody concentration 437.17 ng/mL
binder,measurement,setting,value
B1,fluorescence intensity,[1]; [25],31.8 MFI
same,fluorescence intensity,[1]; [26],35 MFI
same,fluorescence intensity,[2]; [27],29.5 MFI
same,fluorescence intensity,[2]; [28],30 MFI
same,fluorescence intensity,[2]; [29],30 MFI
same,fluorescence intensity,[2]; [30],29.8 MFI
same,fluorescence intensity,[2]; [31],27.5 MFI
same,fluorescence intensity,[2]; [32],30.8 MFI
same,fluorescence intensity,[2]; [25],32 MFI
same,fluorescence intensity,[2]; [26],48.2 MFI
same,fluorescence intensity,[3]; [27],15 MFI
same,fluorescence intensity,[3]; [28],16.5 MFI
same,fluorescence intensity,[3]; [29],17 MFI
same,fluorescence intensity,[3]; [30],17 MFI
same,fluorescence intensity,[3]; [31],16 MFI
same,fluorescence intensity,[3]; [32],17.5 MFI
same,fluorescence intensity,[3]; [25],19 MFI
same,fluorescence intensity,[3]; [26],43 MFI
same,fluorescence intensity,[4]; [27],12.5 MFI
same,fluorescence intensity,[4]; [28],14.5 MFI
same,fluorescence intensity,[4]; [29],26 MFI
same,fluorescence intensity,[4]; [30],92.5 MFI
same,fluorescence intensity,[4]; [31],428 MFI
same,fluorescence intensity,[4]; [32],1980 MFI
same,fluorescence intensity,[4]; [25],4740 MFI
same,fluorescence intensity,[4]; [26],8780 MFI
same,fluorescence intensity,[5]; [27],13.5 MFI
same,fluorescence intensity,[5]; [28],15.5 MFI
same,fluorescence intensity,[5]; [29],14.5 MFI
same,fluorescence intensity,[5]; [30],14.5 MFI
same,fluorescence intensity,[5]; [31],14 MFI
same,fluorescence intensity,[5]; [32],15 MFI
same,fluorescence intensity,[5]; [25],18.5 MFI
same,fluorescence intensity,[5]; [26],43.5 MFI
same,fluorescence intensity,[6]; [27],16.5 MFI
same,fluorescence intensity,[6]; [28],17.5 MFI
same,fluorescence intensity,[6]; [29],17 MFI
same,fluorescence intensity,[6]; [30],17 MFI
same,fluorescence intensity,[6]; [31],18 MFI
same,fluorescence intensity,[6]; [32],18 MFI
same,fluorescence intensity,[6]; [25],21.5 MFI
same,fluorescence intensity,[6]; [26],32 MFI
same,fluorescence intensity,[7]; [27],28 MFI
same,fluorescence intensity,[7]; [28],29 MFI
same,fluorescence intensity,[7]; [29],26.5 MFI
same,fluorescence intensity,[7]; [30],30.5 MFI
same,fluorescence intensity,[7]; [31],30 MFI
same,fluorescence intensity,[7]; [32],31 MFI
same,fluorescence intensity,[7]; [25],39.8 MFI
same,fluorescence intensity,[7]; [26],58.2 MFI
same,fluorescence intensity,[8]; [27],17.5 MFI
same,fluorescence intensity,[8]; [28],19.2 MFI
same,fluorescence intensity,[8]; [29],18.8 MFI
same,fluorescence intensity,[8]; [30],18 MFI
same,fluorescence intensity,[8]; [31],18.5 MFI
same,fluorescence intensity,[8]; [32],19.2 MFI
same,fluorescence intensity,[8]; [25],27 MFI
same,fluorescence intensity,[8]; [26],120 MFI
same,fluorescence intensity,[9]; [27],18.5 MFI
same,fluorescence intensity,[9]; [28],18.5 MFI
same,fluorescence intensity,[9]; [29],17.5 MFI
same,fluorescence intensity,[9]; [30],17.5 MFI
same,fluorescence intensity,[9]; [31],17.2 MFI
same,fluorescence intensity,[9]; [32],18 MFI
same,fluorescence intensity,[9]; [25],18 MFI
same,fluorescence intensity,[9]; [26],19.5 MFI
same,fluorescence intensity,[10]; [27],20 MFI
same,fluorescence intensity,[10]; [28],20.5 MFI
same,fluorescence intensity,[10]; [29],18.8 MFI
same,fluorescence intensity,[10]; [30],19 MFI
same,fluorescence intensity,[10]; [31],19 MFI
same,fluorescence intensity,[10]; [32],19.5 MFI
same,fluorescence intensity,[10]; [25],21 MFI
same,fluorescence intensity,[10]; [26],30.2 MFI
same,fluorescence intensity,[11]; [27],15.8 MFI
same,fluorescence intensity,[11]; [28],16.5 MFI
same,fluorescence intensity,[11]; [29],17 MFI
same,fluorescence intensity,[11]; [30],17.5 MFI
same,fluorescence intensity,[11]; [31],16.2 MFI
same,fluorescence intensity,[11]; [32],15 MFI
same,fluorescence intensity,[11]; [25],16 MFI
same,fluorescence intensity,[11]; [26],19.5 MFI
same,fluorescence intensity,[12]; [27],12.5 MFI
same,fluorescence intensity,[12]; [28],13.5 MFI
same,fluorescence intensity,[12]; [29],13.5 MFI
same,fluorescence intensity,[12]; [30],12 MFI
same,fluorescence intensity,[12]; [31],13 MFI
same,fluorescence intensity,[12]; [32],15.5 MFI
same,fluorescence intensity,[12]; [25],20.8 MFI
same,fluorescence intensity,[12]; [26],73 MFI
same,fluorescence intensity,[13]; [27],12.5 MFI
same,fluorescence intensity,[13]; [28],14.5 MFI
same,fluorescence intensity,[13]; [29],14.8 MFI
same,fluorescence intensity,[13]; [30],13 MFI
same,fluorescence intensity,[13]; [31],13 MFI
same,fluorescence intensity,[13]; [32],13.8 MFI
same,fluorescence intensity,[13]; [25],14.8 MFI
same,fluorescence intensity,[13]; [26],17 MFI
same,fluorescence intensity,[14]; [27],16 MFI
same,fluorescence intensity,[14]; [28],16.5 MFI
same,fluorescence intensity,[14]; [29],18.8 MFI
same,fluorescence intensity,[14]; [30],16.5 MFI
same,fluorescence intensity,[14]; [31],17 MFI
same,fluorescence intensity,[14]; [32],15.5 MFI
same,fluorescence intensity,[14]; [25],19.2 MFI
same,fluorescence intensity,[14]; [26],36 MFI
same,fluorescence intensity,[15]; [27],19.5 MFI
same,fluorescence intensity,[15]; [28],17.5 MFI
same,fluorescence intensity,[15]; [29],18.5 MFI
same,fluorescence intensity,[15]; [30],17 MFI
same,fluorescence intensity,[15]; [31],18.8 MFI
same,fluorescence intensity,[15]; [32],18.8 MFI
same,fluorescence intensity,[15]; [25],19.5 MFI
same,fluorescence intensity,[15]; [26],30 MFI
same,fluorescence intensity,[16]; [27],20.2 MFI
same,fluorescence intensity,[16]; [28],20 MFI
same,fluorescence intensity,[16]; [29],20.8 MFI
same,fluorescence intensity,[16]; [30],20.5 MFI
same,fluorescence intensity,[16]; [31],20 MFI
same,fluorescence intensity,[16]; [32],18.5 MFI
same,fluorescence intensity,[16]; [25],20.5 MFI
same,fluorescence intensity,[16]; [26],24 MFI
same,fluorescence intensity,[17]; [27],22 MFI
same,fluorescence intensity,[17]; [28],18.5 MFI
same,fluorescence intensity,[17]; [29],17.2 MFI
same,fluorescence intensity,[17]; [30],21.5 MFI
same,fluorescence intensity,[17]; [31],18.2 MFI
same,fluorescence intensity,[17]; [32],23.5 MFI
same,fluorescence intensity,[17]; [25],19 MFI
same,fluorescence intensity,[17]; [26],22.5 MFI
same,fluorescence intensity,[18]; [27],16 MFI
same,fluorescence intensity,[18]; [28],16.5 MFI
same,fluorescence intensity,[18]; [29],14.5 MFI
same,fluorescence intensity,[18]; [30],15.5 MFI
same,fluorescence intensity,[18]; [31],16 MFI
same,fluorescence intensity,[18]; [32],17 MFI
same,fluorescence intensity,[18]; [25],17.5 MFI
same,fluorescence intensity,[18]; [26],38.8 MFI
same,fluorescence intensity,[19]; [27],25 MFI
same,fluorescence intensity,[19]; [28],24.8 MFI
same,fluorescence intensity,[19]; [29],24.5 MFI
same,fluorescence intensity,[19]; [30],24.5 MFI
same,fluorescence intensity,[19]; [31],25 MFI
same,fluorescence intensity,[19]; [32],26.2 MFI
same,fluorescence intensity,[19]; [25],41.2 MFI
same,fluorescence intensity,[19]; [26],141 MFI
same,fluorescence intensity,[20]; [27],27.5 MFI
same,fluorescence intensity,[20]; [28],27 MFI
same,fluorescence intensity,[20]; [29],24.5 MFI
same,fluorescence intensity,[20]; [30],25 MFI
same,fluorescence intensity,[20]; [31],24.8 MFI
same,fluorescence intensity,[20]; [32],25.8 MFI
same,fluorescence intensity,[20]; [25],27.5 MFI
same,fluorescence intensity,[20]; [26],35.5 MFI
same,fluorescence intensity,[21]; [27],20.8 MFI
same,fluorescence intensity,[21]; [28],17.5 MFI
same,fluorescence intensity,[21]; [29],17.5 MFI
same,fluorescence intensity,[21]; [30],18 MFI
same,fluorescence intensity,[21]; [31],17 MFI
same,fluorescence intensity,[21]; [32],18 MFI
same,fluorescence intensity,[21]; [25],19.5 MFI
same,fluorescence intensity,[21]; [26],30.5 MFI
same,fluorescence intensity,[22]; [27],18.5 MFI
same,fluorescence intensity,[22]; [28],18.5 MFI
same,fluorescence intensity,[22]; [29],17 MFI
same,fluorescence intensity,[22]; [30],17 MFI
same,fluorescence intensity,[22]; [31],19.5 MFI
same,fluorescence intensity,[22]; [32],18.5 MFI
same,fluorescence intensity,[22]; [25],26.5 MFI
same,fluorescence intensity,[22]; [26],42 MFI
same,fluorescence intensity,[23]; [27],17 MFI
same,fluorescence intensity,[23]; [28],17 MFI
same,fluorescence intensity,[23]; [29],16.5 MFI
same,fluorescence intensity,[23]; [30],16.5 MFI
same,fluorescence intensity,[23]; [31],17.5 MFI
same,fluorescence intensity,[23]; [32],17.8 MFI
same,fluorescence intensity,[23]; [25],21.2 MFI
same,fluorescence intensity,[23]; [26],46 MFI
same,fluorescence intensity,[24]; [27],22.5 MFI
same,fluorescence intensity,[24]; [28],23.5 MFI

# Not a retest: entries from further up.
binder,measurement,setting,value
B1,fluorescence intensity,[17]; [30],21.5 MFI
same,fluorescence intensity,[17]; [31],18.2 MFI
same,fluorescence intensity,[17]; [32],23.5 MFI
same,fluorescence intensity,[17]; [25],19 MFI
same,fluorescence intensity,[17]; [26],22.5 MFI

# An excerpt of these results, as tab-separated lines:
binder	measurement	setting	value
B1	fluorescence intensity	[19]; [30]	24.5 MFI
same	fluorescence intensity	[19]; [31]	25 MFI

# Reference: the supplement of paper PMC11438910
